For assay [1], the target named is type VII collagen, endogenous in normal human skin (human (endogenous in normal skin)) (UniProt Q02388). The assay can be described thus: proximity ligation; Duolink in situ PLA on frozen sections of human skin; rabbit polyclonal LH3 antibody (1:10) with mouse LH7.2 to type VII collagen (1:800) or with an antibody to the laminin 332 γ2 chain, overnight at 4°C.
The target in assay [2] is type VII collagen, retrovirally expressed from COL7A1 in RDEB keratinocytes (human) (UniProt Q02388). The assay is described as follows: co-IP; whole cell lysate (200 μg) of RDEB keratinocytes retrovirally expressing COL7A1; rabbit polyclonal serum to type VII collagen, 2 hours at 4°C, protein G magnetic beads, 5 washes (Universal Magnetic Co-IP kit); blot with mouse monoclonal LH3 antibody; controls: normal rabbit IgG, beads alone, COL7A1 null extract.

Protein sequences, listed by entry. Tags and fused reporters are not part of them. Residues count along the entry.
UniProt Q02388, residues 17-2944: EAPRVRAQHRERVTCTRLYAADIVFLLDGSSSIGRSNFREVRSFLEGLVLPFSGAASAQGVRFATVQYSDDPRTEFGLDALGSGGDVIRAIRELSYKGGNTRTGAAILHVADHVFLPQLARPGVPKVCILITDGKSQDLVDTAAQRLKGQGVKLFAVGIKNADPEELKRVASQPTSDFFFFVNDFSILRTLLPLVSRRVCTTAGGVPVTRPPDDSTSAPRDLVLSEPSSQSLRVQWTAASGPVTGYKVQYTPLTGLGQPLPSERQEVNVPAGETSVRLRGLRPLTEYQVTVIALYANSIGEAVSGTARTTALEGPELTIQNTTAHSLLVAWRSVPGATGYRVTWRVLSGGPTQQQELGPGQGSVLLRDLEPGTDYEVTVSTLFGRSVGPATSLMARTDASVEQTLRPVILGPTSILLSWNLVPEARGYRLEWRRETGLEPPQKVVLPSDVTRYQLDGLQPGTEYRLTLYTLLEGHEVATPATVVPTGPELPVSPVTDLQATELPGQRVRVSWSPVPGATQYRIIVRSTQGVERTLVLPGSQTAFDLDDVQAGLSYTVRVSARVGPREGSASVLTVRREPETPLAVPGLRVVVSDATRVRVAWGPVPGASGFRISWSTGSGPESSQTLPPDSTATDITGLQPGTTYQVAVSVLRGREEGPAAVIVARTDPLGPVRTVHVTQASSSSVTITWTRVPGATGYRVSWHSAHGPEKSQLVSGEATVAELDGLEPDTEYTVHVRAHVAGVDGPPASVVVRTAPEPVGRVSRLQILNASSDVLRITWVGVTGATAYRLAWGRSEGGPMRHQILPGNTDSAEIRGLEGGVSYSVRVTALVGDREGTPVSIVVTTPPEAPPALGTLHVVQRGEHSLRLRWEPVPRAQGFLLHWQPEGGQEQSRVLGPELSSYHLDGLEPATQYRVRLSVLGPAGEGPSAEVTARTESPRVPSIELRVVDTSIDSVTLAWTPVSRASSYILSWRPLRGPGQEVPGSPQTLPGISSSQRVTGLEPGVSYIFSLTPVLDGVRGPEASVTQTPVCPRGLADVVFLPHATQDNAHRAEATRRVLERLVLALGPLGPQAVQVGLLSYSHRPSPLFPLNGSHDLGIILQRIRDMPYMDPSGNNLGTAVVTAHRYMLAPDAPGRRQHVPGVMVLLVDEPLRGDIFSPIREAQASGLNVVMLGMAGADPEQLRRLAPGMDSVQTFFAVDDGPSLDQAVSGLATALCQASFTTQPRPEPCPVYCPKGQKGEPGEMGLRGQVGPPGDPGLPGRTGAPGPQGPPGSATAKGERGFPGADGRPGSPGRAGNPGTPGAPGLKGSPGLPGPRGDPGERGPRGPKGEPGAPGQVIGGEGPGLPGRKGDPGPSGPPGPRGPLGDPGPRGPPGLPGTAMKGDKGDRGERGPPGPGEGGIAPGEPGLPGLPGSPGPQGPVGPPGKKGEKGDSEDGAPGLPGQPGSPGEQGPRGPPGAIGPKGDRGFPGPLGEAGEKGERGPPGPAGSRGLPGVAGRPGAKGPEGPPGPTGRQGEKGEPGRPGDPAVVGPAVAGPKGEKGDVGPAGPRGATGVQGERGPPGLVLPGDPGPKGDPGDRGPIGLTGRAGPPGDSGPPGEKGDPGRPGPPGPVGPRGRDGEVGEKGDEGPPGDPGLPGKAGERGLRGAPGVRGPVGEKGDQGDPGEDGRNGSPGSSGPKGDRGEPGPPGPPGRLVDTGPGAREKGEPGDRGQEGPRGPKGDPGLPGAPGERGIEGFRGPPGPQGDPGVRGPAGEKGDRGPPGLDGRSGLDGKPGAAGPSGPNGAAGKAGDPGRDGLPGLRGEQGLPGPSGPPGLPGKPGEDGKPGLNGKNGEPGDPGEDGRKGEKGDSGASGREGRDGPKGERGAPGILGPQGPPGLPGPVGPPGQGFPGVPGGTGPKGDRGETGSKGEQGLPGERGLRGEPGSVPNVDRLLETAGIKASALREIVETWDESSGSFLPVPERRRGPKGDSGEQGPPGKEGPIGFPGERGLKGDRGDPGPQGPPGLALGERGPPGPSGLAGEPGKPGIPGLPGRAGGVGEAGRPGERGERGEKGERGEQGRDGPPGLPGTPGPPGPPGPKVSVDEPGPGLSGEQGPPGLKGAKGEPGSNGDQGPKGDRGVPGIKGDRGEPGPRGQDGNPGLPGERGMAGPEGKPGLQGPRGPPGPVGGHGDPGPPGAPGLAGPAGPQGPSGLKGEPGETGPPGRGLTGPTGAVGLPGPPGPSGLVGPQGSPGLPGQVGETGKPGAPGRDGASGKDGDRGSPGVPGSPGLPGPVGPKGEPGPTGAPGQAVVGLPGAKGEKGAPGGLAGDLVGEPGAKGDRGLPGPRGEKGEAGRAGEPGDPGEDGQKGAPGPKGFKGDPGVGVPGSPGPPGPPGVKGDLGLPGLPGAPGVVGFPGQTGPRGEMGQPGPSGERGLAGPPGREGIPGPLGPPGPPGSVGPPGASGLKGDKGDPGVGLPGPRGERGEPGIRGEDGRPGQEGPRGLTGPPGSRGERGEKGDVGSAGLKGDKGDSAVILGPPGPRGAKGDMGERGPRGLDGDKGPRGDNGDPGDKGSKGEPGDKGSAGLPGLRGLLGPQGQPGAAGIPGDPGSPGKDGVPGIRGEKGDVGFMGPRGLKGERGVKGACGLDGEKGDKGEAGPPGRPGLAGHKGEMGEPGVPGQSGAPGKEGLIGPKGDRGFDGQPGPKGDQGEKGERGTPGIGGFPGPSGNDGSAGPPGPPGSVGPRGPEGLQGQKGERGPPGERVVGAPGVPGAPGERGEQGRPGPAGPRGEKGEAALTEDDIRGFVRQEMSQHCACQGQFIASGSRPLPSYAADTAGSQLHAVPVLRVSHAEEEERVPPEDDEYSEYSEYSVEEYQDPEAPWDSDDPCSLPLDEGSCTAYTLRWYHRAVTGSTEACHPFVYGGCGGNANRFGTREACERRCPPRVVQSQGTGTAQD
UniProt O60568, residues 25-738: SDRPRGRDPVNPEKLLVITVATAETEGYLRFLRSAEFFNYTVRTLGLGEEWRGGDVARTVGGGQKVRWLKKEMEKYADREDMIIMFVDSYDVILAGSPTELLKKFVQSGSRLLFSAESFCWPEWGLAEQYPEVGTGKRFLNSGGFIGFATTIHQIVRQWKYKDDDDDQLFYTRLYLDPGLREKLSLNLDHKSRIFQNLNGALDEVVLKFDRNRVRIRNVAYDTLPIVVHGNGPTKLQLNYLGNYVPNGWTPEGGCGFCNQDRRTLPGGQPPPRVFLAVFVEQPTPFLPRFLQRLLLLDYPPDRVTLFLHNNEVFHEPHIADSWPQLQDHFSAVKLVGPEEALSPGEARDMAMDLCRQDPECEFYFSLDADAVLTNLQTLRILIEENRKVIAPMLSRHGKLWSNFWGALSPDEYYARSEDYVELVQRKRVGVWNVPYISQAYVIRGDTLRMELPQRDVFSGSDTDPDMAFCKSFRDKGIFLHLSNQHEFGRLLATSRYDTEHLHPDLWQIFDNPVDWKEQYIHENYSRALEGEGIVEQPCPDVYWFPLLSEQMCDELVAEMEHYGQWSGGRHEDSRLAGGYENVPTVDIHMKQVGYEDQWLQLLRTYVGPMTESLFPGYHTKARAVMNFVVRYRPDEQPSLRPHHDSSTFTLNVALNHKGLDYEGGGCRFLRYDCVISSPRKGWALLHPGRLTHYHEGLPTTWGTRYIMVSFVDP

Results are given in words; binding and its absence hold for the method and conditions named. Binding seen in cells or lysates may run through a third protein. Some entries that bind do so weakly or less than the wild type.

Turning to “lysyl hydroxylase 3 (from UniProt O60568 25-738) (enzyme)”, the binding entry in assay [1] and in assay [2] was “binds” throughout.

The record behind these values is PMC4575209.
